The assay addresses Ras-GTPase-activating protein SH3 domain-binding protein 1 (G3BP1) (human (endogenous in human melanoma cell lines)) (UniProt Q13283). Description: co-IP; lysate of melanoma cells (Western and IP Lysis Solution); IP antibody (1 μg) or paired mouse/rabbit IgG at 4 °C overnight; protein A agarose beads; washed with PBS; western blot.

Protein sequences, listed by entry. Tags and fused reporters are not part of them.
UniProt Q13283: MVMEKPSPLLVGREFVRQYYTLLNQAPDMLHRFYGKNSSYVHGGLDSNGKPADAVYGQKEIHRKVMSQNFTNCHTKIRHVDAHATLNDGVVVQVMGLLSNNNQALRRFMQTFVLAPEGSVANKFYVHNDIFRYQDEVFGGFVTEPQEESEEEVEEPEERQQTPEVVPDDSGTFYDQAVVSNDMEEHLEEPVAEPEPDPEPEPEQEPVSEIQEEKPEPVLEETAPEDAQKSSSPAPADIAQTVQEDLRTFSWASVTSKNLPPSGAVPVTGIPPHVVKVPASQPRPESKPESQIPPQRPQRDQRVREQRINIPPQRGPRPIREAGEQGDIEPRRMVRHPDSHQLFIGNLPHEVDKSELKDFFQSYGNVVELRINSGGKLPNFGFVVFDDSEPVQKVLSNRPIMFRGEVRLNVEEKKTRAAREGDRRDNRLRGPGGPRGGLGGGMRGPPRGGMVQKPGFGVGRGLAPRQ
UniProt Q14974: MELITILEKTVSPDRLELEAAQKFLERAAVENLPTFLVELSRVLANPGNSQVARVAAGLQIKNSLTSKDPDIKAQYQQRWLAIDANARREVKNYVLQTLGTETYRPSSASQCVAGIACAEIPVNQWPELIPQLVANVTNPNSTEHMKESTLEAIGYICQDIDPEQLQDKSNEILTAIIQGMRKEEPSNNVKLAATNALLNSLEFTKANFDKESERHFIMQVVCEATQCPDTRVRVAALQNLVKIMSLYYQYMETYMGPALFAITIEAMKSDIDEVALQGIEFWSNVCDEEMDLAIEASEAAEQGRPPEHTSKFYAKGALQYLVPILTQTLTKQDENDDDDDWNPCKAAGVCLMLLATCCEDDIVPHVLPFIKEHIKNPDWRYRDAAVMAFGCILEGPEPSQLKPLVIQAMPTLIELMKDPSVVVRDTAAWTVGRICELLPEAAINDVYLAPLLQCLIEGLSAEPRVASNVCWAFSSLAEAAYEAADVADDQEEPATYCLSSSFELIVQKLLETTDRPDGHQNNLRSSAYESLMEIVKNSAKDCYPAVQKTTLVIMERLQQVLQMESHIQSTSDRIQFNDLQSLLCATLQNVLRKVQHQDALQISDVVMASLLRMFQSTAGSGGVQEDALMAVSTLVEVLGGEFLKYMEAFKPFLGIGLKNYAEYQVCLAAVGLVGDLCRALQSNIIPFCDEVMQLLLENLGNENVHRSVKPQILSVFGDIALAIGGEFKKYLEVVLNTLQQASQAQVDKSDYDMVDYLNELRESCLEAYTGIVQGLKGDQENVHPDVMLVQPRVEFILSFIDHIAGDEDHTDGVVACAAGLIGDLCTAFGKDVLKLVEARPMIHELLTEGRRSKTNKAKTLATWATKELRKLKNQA

No constants are given. Whether binding was seen depends on the method and setting. In cells and extracts the contact can be indirect. Some binding calls cover weakened binding; strength is not graded here.

For “karyopherin β1 (KPNB1) (from UniProt Q14974 1-876)”, the binding result is given as “binds”.

The values above are taken from article PMC9750864.
